Patent US20070270588A1, “Pyrrolopyrimidine Derivatives” (Taisho Pharmaceutical Co., Ltd., priority 2004, published 2007)
Some of these results come from one statement about several compounds together.

target: T1, CRF receptor (Macaca mulatta, UniProt Q76LL8); test: CRF receptor binding test; conditions: monkey amygdala membranes, 125I-CRF 0.2 nM, 25° C. for 2 h; read-out: IC50 (concentration of the test drug at which binding of 125I-CRF is inhibited by 50%)
T1 sequence (Q76LL8 24-415): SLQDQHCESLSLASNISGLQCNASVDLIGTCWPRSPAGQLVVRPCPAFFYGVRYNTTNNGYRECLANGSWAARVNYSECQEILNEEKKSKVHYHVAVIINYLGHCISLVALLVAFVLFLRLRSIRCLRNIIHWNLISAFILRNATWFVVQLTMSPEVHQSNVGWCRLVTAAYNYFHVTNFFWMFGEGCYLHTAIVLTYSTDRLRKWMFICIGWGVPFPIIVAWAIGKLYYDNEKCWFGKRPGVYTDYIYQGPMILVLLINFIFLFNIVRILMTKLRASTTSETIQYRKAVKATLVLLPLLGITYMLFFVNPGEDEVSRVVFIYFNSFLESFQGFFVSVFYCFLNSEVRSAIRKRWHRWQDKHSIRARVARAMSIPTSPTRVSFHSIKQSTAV

Row | SMILES | IC50 [nM]
1 | CCC(CC)n1ccc2c(C)nc(N(CC)c3ccc(C(C)C)cc3Br)nc21 [Compound 1-003, (2-bromo-4-isopropyl-phenyl)-ethyl-[7-(1-ethyl-propyl)-4-methyl-7H-pyrrolo[2,3-d]pyrimidin-2-yl]-amine] | ≤ 200
2 | CC[C@H](COC)n1ccc2c(C)nc(N(CC)c3ccc(C(C)C)cc3Br)nc21 [Compound 1-004] | ≤ 200
3 | CC[C@@H](COC)n1ccc2c(C)nc(N(CC)c3ccc(C(C)C)cc3Br)nc21 [Compound 1-011] | ≤ 200
